The list is a part of this screen's results and no random one: it is rich in T/C values a quarter to a half above the control, in often repeated tests (any T/C) and in doses without a T/C. Further doses and runs are listed elsewhere. T/C is the treated group as % of the vehicle group. Some doses have a count of surviving animals in place of a T/C: the source files T/C as zero there, which appears to mark a toxic dose or a test without result, not a measured value. Some survivor counts are full or nearly so, which does not show that the dose was tolerated: the source hardly ever lists a survival T/C far under the control, and the zero likely stands for such cases as well. Survivors were counted at the toxicity check, usually on the fifth day, unless a day is given; later deaths do not show. Schedule codes are those of the source, read here as Q, the interval in days (D) or hours (H), X, the number of doses. For survival time, this PubChem deposit counts one and a half times the control or more as active, and values a quarter to a half above the control carry no call in these data; other NCI protocols may use other cut-offs.
Tested on: P388 leukemia ip, CD2F1 mice, survival T/C
Assay: NCI In Vivo Anticancer Drug Screen. Data for tumor model P388 Leukemia (intraperitoneal) in CD2F1 (CDF1) mice
Details: T/C endpoint: median survival time, higher T/C = longer survival

SMILES: CC(C)(C)NC(C1=CC(C)(C)c2ccccc2C1=O)c1ccccc1 (configuration not stated)
- T/C (dose: 100.0 mg/kg/injection, schedule: Q01DX009 (ip), vehicle: Klucel + Tween-80): 126 % of control
- survivor count (dose: 200.0 mg/kg/injection, schedule: Q01DX009 (ip), vehicle: Klucel + Tween-80): 4 of 6
- survivor count (dose: 400.0 mg/kg/injection, schedule: Q01DX009 (ip), vehicle: Klucel + Tween-80): 0 of 6
- survivor count (dose: 600.0 mg/kg/injection, schedule: Q01DX009 (ip), vehicle: Klucel + Tween-80): 0 of 4

SMILES: COc1cc2cc(-c3ccccc3)[n+](C)cc2cc1OC
- survivor count (dose: 50.0 mg/kg/injection, schedule: Q01DX001 (ip), vehicle: saline): 0 of 6
- survivor count (dose: 100.0 mg/kg/injection, schedule: Q01DX001 (ip), vehicle: saline): 0 of 6
- survivor count (dose: 200.0 mg/kg/injection, schedule: Q01DX001 (ip), vehicle: saline): 0 of 6
- survivor count (dose: 400.0 mg/kg/injection, schedule: Q01DX001 (ip), vehicle: saline): 0 of 6

SMILES: COC(C)C(O)(C(=O)OCC1=CC[N+]2([O-])CCC(O)C12)C(C)(C)O (configuration not stated)
- T/C (dose: 400.0 mg/kg/injection, schedule: Q01DX005 (ip), vehicle: other): 129 % of control

SMILES: c1c[nH]c(C23CC4CC(CC(C4)C2)C3)n1
- survivor count (dose: 100.0 mg/kg/injection, schedule: Q01DX005 (ip), vehicle: saline with Tween-80): 3 of 5
- survivor count (dose: 200.0 mg/kg/injection, schedule: Q01DX005 (ip), vehicle: saline with Tween-80): 0 of 5

SMILES: CC/C(=C\c1ccccc1)[N+](=O)[O-]
- survivor count (dose: 50.0 mg/kg/injection, schedule: Q01DX009 (ip), vehicle: saline with Tween-80): 6 of 6
